# Results of single-concentration screens

Amino acid sequences for entries named in this document (tags omitted).
UniProt I6X8D2, whole entry: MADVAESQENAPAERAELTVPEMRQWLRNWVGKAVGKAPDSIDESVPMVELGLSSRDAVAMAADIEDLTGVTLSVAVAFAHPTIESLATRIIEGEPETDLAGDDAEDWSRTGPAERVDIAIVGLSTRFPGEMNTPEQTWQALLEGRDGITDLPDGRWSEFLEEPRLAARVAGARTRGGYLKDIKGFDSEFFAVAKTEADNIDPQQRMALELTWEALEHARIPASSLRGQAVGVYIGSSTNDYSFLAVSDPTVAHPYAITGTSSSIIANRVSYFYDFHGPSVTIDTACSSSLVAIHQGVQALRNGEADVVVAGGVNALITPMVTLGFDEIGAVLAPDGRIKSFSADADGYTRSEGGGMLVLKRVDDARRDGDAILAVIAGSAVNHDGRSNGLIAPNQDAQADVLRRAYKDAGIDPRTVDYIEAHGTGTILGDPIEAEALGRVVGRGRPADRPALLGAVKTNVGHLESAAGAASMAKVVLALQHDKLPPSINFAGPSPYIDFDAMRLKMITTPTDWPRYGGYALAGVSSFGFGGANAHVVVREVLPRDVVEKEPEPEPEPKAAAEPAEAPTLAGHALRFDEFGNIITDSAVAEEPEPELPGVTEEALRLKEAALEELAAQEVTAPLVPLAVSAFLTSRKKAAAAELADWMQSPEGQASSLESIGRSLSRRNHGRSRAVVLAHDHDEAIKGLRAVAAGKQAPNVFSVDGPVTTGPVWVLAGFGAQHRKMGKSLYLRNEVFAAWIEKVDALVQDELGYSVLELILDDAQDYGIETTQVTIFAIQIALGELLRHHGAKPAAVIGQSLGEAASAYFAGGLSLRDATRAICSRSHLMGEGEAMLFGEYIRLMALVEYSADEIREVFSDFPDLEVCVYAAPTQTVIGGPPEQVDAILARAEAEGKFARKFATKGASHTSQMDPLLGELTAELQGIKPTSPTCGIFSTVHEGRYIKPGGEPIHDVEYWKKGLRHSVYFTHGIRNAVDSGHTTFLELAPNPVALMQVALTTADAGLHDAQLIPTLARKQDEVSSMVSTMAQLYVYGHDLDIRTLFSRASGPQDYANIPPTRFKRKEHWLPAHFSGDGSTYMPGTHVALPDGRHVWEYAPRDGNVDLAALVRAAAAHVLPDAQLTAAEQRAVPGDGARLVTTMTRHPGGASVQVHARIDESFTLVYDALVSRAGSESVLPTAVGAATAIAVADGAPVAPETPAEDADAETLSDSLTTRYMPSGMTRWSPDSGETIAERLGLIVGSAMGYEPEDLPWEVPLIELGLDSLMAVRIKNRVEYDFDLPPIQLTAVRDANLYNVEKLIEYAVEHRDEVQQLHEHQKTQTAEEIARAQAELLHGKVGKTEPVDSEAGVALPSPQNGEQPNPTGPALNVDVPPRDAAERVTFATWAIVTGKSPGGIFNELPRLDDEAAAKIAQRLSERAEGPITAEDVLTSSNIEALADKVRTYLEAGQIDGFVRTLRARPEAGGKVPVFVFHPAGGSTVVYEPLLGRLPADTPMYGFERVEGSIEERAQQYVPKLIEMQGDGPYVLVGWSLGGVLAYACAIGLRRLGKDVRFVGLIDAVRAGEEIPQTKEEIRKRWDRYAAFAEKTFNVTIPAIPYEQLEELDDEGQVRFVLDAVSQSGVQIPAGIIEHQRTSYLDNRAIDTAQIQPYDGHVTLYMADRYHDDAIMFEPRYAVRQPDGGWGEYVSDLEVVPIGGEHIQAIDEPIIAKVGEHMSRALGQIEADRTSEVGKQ
UniProt P9WNZ1, whole entry: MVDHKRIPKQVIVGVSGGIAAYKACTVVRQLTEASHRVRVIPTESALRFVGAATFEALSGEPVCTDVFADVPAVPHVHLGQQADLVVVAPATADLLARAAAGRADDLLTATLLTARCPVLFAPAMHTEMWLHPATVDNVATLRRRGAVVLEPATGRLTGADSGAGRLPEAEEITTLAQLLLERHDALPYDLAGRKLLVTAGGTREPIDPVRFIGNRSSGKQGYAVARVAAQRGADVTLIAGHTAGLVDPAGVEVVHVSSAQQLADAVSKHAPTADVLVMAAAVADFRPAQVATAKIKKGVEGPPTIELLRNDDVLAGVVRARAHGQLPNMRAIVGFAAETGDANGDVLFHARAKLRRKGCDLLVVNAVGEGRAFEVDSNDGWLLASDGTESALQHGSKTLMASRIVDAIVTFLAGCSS
UniProt P9WPC5, whole entry: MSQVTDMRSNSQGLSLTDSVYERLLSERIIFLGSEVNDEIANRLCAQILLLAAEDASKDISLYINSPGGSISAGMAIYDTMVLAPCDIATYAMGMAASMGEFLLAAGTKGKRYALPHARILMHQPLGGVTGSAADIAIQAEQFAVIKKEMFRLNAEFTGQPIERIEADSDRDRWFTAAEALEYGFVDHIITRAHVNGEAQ
UniProt P9WPC3, whole entry partner: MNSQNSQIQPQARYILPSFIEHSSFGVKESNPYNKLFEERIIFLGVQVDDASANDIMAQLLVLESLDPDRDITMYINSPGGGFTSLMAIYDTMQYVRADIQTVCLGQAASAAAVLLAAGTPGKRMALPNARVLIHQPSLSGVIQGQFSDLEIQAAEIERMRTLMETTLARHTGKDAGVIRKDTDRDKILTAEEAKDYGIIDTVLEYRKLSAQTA
UniProt P9WFT3, whole entry: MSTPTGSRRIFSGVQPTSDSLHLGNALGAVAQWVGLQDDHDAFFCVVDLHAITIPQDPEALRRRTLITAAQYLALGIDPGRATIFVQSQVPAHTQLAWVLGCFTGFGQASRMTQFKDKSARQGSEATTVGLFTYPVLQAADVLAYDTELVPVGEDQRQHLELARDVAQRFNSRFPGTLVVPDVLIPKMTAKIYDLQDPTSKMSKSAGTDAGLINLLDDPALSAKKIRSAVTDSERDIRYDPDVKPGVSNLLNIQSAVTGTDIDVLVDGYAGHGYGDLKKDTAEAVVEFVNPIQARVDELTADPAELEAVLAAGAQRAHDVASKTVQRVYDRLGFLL

Source: ChEMBL document CHEMBL3988442, “University of Dundee, Small-Polar-MMV Screening Library” (2021).

Pks13 thioesterase: 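Enzyme assay of the thioesterase domain of polyketide synthase 13; the read-out is not stated. Target: Polyketide synthase Pks13, Mycobacterium tuberculosis (UniProt I6X8D2). Compounds at 30 µM. Higher reads as stronger inhibition (inferred from which compounds were picked for retests). Size under these conditions: about 67,000 compounds, about 300 of them at 50% or above in at least one test.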
Toxoplasma: 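Assay of Toxoplasma gondii numbers, read through their beta-galactosidase reporter with a colour substrate. Compounds at 10 µM. The record gives no direction; the compounds picked for IC50 retests had high values, so higher reads as fewer parasites. About 67,000 compounds were tested under these conditions; 0.38% (about 260) showed 50% or more at least once.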
CoaBC: 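Enzyme assay of CoaBC with a phosphate dye (Biomol Green) read at 650 nm. Target: Coenzyme A biosynthesis protein CoaBC, Mycobacterium tuberculosis (UniProt P9WNZ1). Compounds at 30 µM. Higher reads as stronger inhibition, judged from the few compounds that gave an IC50. Most strong results did not repeat in a second test. About 67,000 compounds were tested under these conditions; 0.06% (about 40) showed 50% or more at least once.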
ClpP1P2: 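ClpP1P2, Mycobacterium tuberculosis (UniProt P9WPC5 and UniProt P9WPC3). Protease assay of ClpP1P2, read by the AMC dye that it sets free. Tested at 50 µM. Direction is inferred from only a few compounds that gave an IC50; most scored high, so higher reads as stronger inhibition. Most other retested compounds had strongly negative values. About 69,000 compounds were tested under these conditions; 0.015% (about 10) showed 50% or more at least once.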
Leishmania in macrophages: 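Cell assay of Leishmania donovani living inside macrophages; the read-out is not stated. Concentration: 30 µM. The record gives no direction; compounds that gave an IC50 in retests scored well above the rest, so higher reads as stronger inhibition. Of about 69,000 compounds tested this way, about 1,000 (1.5%) reached 50% or more in at least one test.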
MtTrpRS: 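Tryptophan-tRNA ligase, Mycobacterium tuberculosis (UniProt P9WFT3). Enzyme assay of tryptophanyl-tRNA synthetase; the read-out is not stated. Concentration: 10 µM. Higher most likely means stronger inhibition; the record gives no direction and few retests gave an IC50. About 65,000 compounds were tested under these conditions; 0.098% (about 64) showed 50% or more at least once.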

Each number is a percent effect as filed. The record does not define 0% and 100%; most values in the screen are far below 50% and negative numbers occur (in some assays of this library far below -100). This is an unselected part of the compounds tested. Two or more numbers in one place are separate tests of the same structure; such repeats can differ widely. A dash means the value is not listed here; it may have been measured.

| structure | Pks13 thioesterase | Toxoplasma | CoaBC | ClpP1P2 | Leishmania in macrophages | MtTrpRS |
|---|---|---|---|---|---|---|
| `Cc1cccc(CN2CCC3(CC2)CC(c2cccnc2)C(=O)N3C)n1` (centres unmarked) | 5.487 | - | -2.195 | 11.46 | - | - |
| `CCn1c(C)cc(C(=O)N2CCCC(C(=O)c3nccn3C)C2)c1C` (centres unmarked) | -15.71 | 4.658 | 5.732 | 2.043 | 34.5 | -0.08374 |
| `CC(NC(=O)c1cc(=O)n(C)c(=O)n1C)c1ccccc1-n1cccn1` (centres unmarked) | 4.954 | -23.19 | 6.997 | -17.27 | 35.46 | 0.4454 |
| `COCC(=O)N(C)Cc1nc(N2CCCC2)ncc1-c1ccncc1.Cl` | - | 10.26 | - | - | 26.15 | - |
| `CC(C)(C)C(O)CN1CCN(CC(=O)NCC(F)(F)F)CC1` (centres unmarked) | -9.118 | 1.921 | 0.8065 | 7.503 | 6.413 | 2.058 |
| `CCCSCC(=O)Nc1ncn(CC(=O)N2CCCCCC2)n1` | -2.369 | 2.564 | 2.355 | 8.153 | -15.65 | -2.319 |
| `CCCS(=O)(=O)NC(C)c1cccc(-n2cccn2)c1` (centres unmarked) | -7.177 | -7.26 | 5.691 | 4.915 | 19.52 | 2.75 |
| `O=C(O)C(F)(F)F.[H][C@]12CCN(S(=O)(=O)N(C)C)CC[C@@]1([H])S(=O)(=O)CCN2CC(C)C` | - | 14.49 | - | - | 0.347 & -2.68 | - |
| `Fc1cccc2ncnc(NCCCc3ccncc3)c12` | -10.86 | -5.88 | 10.56 | -23.26 | 40.05 | -2.46 |
| `CCc1ccc(CN2CCC3(CC2)C(=O)N(C)CCN3CC2CC2)cc1.O=C(O)C(F)(F)F` | - | 9.257 | - | - | -7.243 | - |
| `Cc1cc(C2CCCN2Cc2ccc(C(=O)Nc3nccs3)cc2)on1` (centres unmarked) | -4.369 | -3.483 | 5.825 | -7.797 | -14.05 | -12.24 |
| `CN1CCC2(CCCN(c3nccc(C(F)(F)F)n3)C2)CC1` | -12.48 | - | 6.361 | -12.07 | - | -2.991 |
| `COCCN1C[C@@H](c2ccccc2)[C@@]2(CCN(CC(=O)N(C)C)C2=O)C1.O=C(O)C(F)(F)F` | - | 0.1109 | - | - | 4.018 | - |
| `[H][C@]12CCN(C(=O)C(C)(C)C)CC[C@@]1([H])S(=O)(=O)CCN2S(C)(=O)=O` | - | 1.885 | - | - | -0.7285 | - |
| `Cc1nc(-c2ccccc2)cc(C2CCNCC2)n1.Cl` | - | 16.48 | - | - | -29.87 | - |
| `O=C(NCCCn1cccn1)C1(c2ccc(Br)cc2)CC1` | -9.326 | -1.642 | 7.036 | -8.733 | 15.21 | -0.3564 |
| `COc1ccc(C)c2c1N(C(=O)c1cnc3onc(C)c3c1)CCC2` | -15.96 | -14.57 | 2.886 | -11.61 | 21.03 | -1.341 |
| `Cc1ccccc1N1CCN(C(=O)c2cnc(C3CC3)nc2)C(C)C1` (centres unmarked) | -20.54 | -7.721 | -3.968 | -12.3 | 12.91 | 2.43 |
| `CC(C)NC(=O)N1CCCC2(CCN(c3ccccc3)C2=O)C1` (centres unmarked) | -27.68 | -6.99 | 5.534 | -13.83 | 1.601 | -6.977 |
| `CC(=O)NCCCC(=O)N1CCc2[nH]c(-c3ccccc3)nc2C1` | -4.239 | -2.441 | 1.603 | -13.59 | 10.62 | 0 |
| `CCCC(Nc1c(C#N)c(=O)n(C)c(=O)n1C)c1ccc(F)cc1F` (centres unmarked) | -43.94 | - | 6.17 | -7.623 | 7.401 | 2.911 |
| `CN1CCN(c2cc(NC(=O)c3cnccn3)ncn2)CC1` | -5.603 | -10.68 | 1.48 | -6.432 | 9.832 & 8.336 | -1.14 |
| `CC1(C(=O)NCc2cccc(C(F)(F)F)c2)CCOCC1` | -10.22 | 10.15 | 2.632 | -1.844 | 11.09 | -5.272 |
| `CCOCCC(=O)N(CCC#N)c1ccc(C)c(C)c1` | -14.9 | 0.918 | 1.656 | -13.98 | 3.012 | -1.125 |
| `[H][C@@]12C[C@@H](O)CN1C[C@H](Cc1ccccc1)N(Cc1cnn(C=C)c1C)C2` | - | -0.5628 | - | - | -11.98 & 2.35 | - |
| `Cc1ccc(C)c(Oc2ccc(CNC(=O)C3CCC(=O)N3)cn2)c1` (centres unmarked) | -6.182 | -60.48 | 0.4808 | -15.05 | 10.04 | -1.027 |
| `CC(=O)Nc1ccc(CCC2(NC(=O)C3CC3)CCCCC2)cn1` | 3.496 | 0.7512 | 6.311 | -14.67 | -6.696 | 3.171 |
| `O=C(CCc1ccc(-n2cnnn2)cc1)Nc1nncs1` | 44.81 | 9.145 | -1.937 | -22.55 | 3.127 | 5.25 |
| `C[C@@H]1CN2C[C@H](O)CC2CN1Cc1ccc2nccnc2c1` (some centres unmarked) | -27.23 | - | -6.413 | -2.568 | 7.58 | 3.329 |
| `O=C(NCc1ccccn1)[C@@H]1COC[C@H]2CNC[C@H]21` | -16.71 | - | 14.46 | 7.446 | - | 0 |
| `Cc1csc(N2CCCN(C(=O)C(C)n3ccnc3)CC2)n1` (centres unmarked) | -23.97 | 7.431 | 4.047 | 7.344 | 17.73 | 1.652 |
| `O=C(O)C(F)(F)F.[H][C@@]12COC[C@@H](NS(C)(=O)=O)[C@]1([H])CN(Cc1ccc(C)o1)C2` | - | 1.496 | - | - | 19.54 | - |
| `O=C1CCC2(CCCN(c3ncc(F)cn3)CC2)N1CC1CC1` (centres unmarked) | -6.531 | 1.552 | 2.408 | -12.2 | 19.6 | -2.536 |
| `Cc1cccc(S(=O)(=O)NCC2CCN(c3cnccn3)CC2)c1` | 9.869 | 3.242 | 6.192 | -11.45 | -5.892 | 3.223 |
| `O=C(CCc1ccco1)NS(=O)(=O)N1CCOc2ccccc21` | -6.457 | 13.92 | -8.333 | 6.205 | 39.68 | 2.346 |
| `COc1ccc(CNCCc2cccc(C(N)=O)c2)cc1C` | -9.472 | -2.09 | -34.52 | -3.146 | -10.89 | 0.8894 |
| `O=C(C1CN(CC2CC2)CC12CCOCC2)N1CCOCC1.O=C(O)C(F)(F)F` (centres unmarked) | - | -7.173 | - | - | -2.723 | - |
| `Cc1ccc(CN2Cc3nnn(C)c3C(COCC3CC3)C2)s1.O=C(O)C(F)(F)F` (centres unmarked) | - | -9.58 | - | - | 19.91 | - |
| `O=C(O)C(F)(F)F.[H][C@@]12CN(Cc3c(C)noc3C)C[C@]1([H])CN(C(=O)c1cnccn1)C2` | - | 10.77 | - | - | -9.873 & 6.057 | - |
| `CCCS(=O)(=O)N1C[C@@H](Oc2ccccn2)[C@H]2OCCC[C@H]21` | -29.57 | - | -1.895 | 7.684 | - | 1.673 |
| `Cc1nc(C)n(CC2CCCCN2CCOc2ccc(C#N)cc2)n1` (centres unmarked) | 9.838 | -4.203 | 6.824 | -16.19 | 19.26 | -2.178 |
| `Cc1ccc(-c2nc(C(=O)N3CCCC(C(N)=O)C3)cs2)c(C)c1` (centres unmarked) | -15.15 | -1.537 | 2.864 | -29.25 | 16.38 | -4.064 |
| `CC(=O)N1CCC2(CC1)C(=O)N(c1ccc(C)nc1)CCN2CC(C)C` | 7.072 | -5.232 | - | 2.96 | -16.77 | 5.502 |
| `COc1ccc(C(=O)NCC(c2cccn2C)N2CCCC2)c(OC)c1` (centres unmarked) | -23.62 | -2.328 | -1.648 | -2.478 | 21.66 | -2.977 |
| `Cc1cc(CN2CC[C@H]3C[C@H](c4nc(C5CC5)cs4)O[C@@H]3C2)no1` | -14.05 | - | 2.97 | -16.32 | - | - |
| `COCCC1(CNC(=O)Nc2ccc(-n3ccnn3)cc2)CCC1` | -15.96 | 10.86 | -9.529 | -4.348 | -0.04244 | 3.154 |
| `COc1ccccc1CN(Cc1nc(Cc2ccccc2)no1)C1CC1` | 10.33 | -12.32 | 8.908 | -9.272 | 48.65 | 0.6121 |
| `CC(C)N(C)Cc1cncc2c1CCN(Cc1cccs1)C2` | -0.5682 | - | 2.351 | -15.01 | - | - |
| `CN(C)CCNC(=O)c1nc2c(s1)CCCN2C(=O)C1CC1` | 15.28 | - | 1.485 | -38.32 | - | - |
| `COc1cc(N2CC[C@H]3OCC[C@@]3(COc3nccc(C)n3)C2)ncn1` | -32 | - | -0.611 | 3.471 | - | 3.427 |
| `O=C(c1ccc(Cl)cc1)N1CCCn2nnc(Cn3cccn3)c2C1` | -16.47 | -0.6911 | 9.692 | 5.762 | 4.7 | 0.1676 |
| `Cc1nc(CN2CCN(C)C(=O)C23CCN(C(C)C)CC3)cs1` | 2.002 | - | 4.97 | 0.2232 | - | - |
| `Cc1ccc(CN2CC[C@@H](O)[C@@H]2Cc2cnn(C)c2)o1.O=C(O)C(F)(F)F` | - | -11.06 | - | - | 17.64 | - |
| `CCNC(=O)NCC1(CN2CCOCC2)CCCCC1` | -19.95 | 5.04 | 14.95 | -4.111 | 7.117 | 2.694 |

The first 6 entries again:

structure,Pks13 thioesterase,Toxoplasma,CoaBC,ClpP1P2,Leishmania in macrophages,MtTrpRS
Cc1cccc(CN2CCC3(CC2)CC(c2cccnc2)C(=O)N3C)n1 (centres unmarked),5.487,-,-2.195,11.46,-,-
CCn1c(C)cc(C(=O)N2CCCC(C(=O)c3nccn3C)C2)c1C (centres unmarked),-15.71,4.658,5.732,2.043,34.5,-0.08374
CC(NC(=O)c1cc(=O)n(C)c(=O)n1C)c1ccccc1-n1cccn1 (centres unmarked),4.954,-23.19,6.997,-17.27,35.46,0.4454
COCC(=O)N(C)Cc1nc(N2CCCC2)ncc1-c1ccncc1.Cl,-,10.26,-,-,26.15,-
CC(C)(C)C(O)CN1CCN(CC(=O)NCC(F)(F)F)CC1 (centres unmarked),-9.118,1.921,0.8065,7.503,6.413,2.058
CCCSCC(=O)Nc1ncn(CC(=O)N2CCCCCC2)n1,-2.369,2.564,2.355,8.153,-15.65,-2.319